Reference: article PMC7939464
These are yes or no findings as the source states them, for the method shown. Binding seen in cells or lysates may run through a third protein. Some entries that bind do so weakly or less than the wild type.

Sequences of proteins named here, by UniProt entry; tags and fusion partners are left off.
UniProt Q96PU5: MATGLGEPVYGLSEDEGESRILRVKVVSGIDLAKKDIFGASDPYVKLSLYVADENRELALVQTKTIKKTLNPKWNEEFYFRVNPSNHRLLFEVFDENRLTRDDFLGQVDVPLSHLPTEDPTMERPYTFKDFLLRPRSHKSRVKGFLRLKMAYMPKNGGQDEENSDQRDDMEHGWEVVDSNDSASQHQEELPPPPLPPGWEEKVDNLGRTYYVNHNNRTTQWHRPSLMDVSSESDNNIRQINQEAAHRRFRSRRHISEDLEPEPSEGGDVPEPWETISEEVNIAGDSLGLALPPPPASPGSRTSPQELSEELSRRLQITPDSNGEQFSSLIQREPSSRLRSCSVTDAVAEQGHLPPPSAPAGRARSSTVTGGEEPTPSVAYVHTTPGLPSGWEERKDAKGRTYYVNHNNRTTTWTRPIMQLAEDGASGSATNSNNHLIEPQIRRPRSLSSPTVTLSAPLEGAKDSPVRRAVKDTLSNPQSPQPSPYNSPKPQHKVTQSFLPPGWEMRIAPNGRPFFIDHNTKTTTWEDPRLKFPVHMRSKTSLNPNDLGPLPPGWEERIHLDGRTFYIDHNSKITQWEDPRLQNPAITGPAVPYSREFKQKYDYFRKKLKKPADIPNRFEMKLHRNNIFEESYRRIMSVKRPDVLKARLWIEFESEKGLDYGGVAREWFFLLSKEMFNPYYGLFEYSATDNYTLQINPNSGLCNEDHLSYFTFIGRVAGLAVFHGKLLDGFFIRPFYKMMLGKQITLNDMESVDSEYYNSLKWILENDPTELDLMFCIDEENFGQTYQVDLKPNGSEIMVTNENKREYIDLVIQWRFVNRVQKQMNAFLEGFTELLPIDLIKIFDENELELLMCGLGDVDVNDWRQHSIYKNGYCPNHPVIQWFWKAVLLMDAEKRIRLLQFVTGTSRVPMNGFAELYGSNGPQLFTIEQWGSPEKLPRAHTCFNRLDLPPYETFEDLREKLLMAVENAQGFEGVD
UniProt Q99732: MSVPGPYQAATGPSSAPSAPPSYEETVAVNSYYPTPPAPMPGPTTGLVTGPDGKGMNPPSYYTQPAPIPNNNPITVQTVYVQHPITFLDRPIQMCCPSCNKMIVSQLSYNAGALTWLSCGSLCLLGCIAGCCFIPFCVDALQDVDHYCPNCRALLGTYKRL

Legend:
[1] = target: V5-tagged Nav1.5 (voltage-gated sodium channel) (UniProt Q14524); assay: co-IP; V5 antiserum IP of extracts of HEK cells stably expressing V5-tagged Nav1.5, transfected with HA-tagged LITAF or empty vector; Western blot (n = 3)
[2] = target: FLAG-tagged NEDD4-2 (neural precursor cell-expressed developmentally down-regulated 4 type 2) (UniProt Q96PU5); assay: co-IP; FLAG antibody IP of total lysates of stable HEK cells transiently expressing HA-tagged LITAF and FLAG-tagged NEDD4-2, or FLAG-tagged NEDD4-2 alone, 48 h; Western blot (n = 3)

HA-tagged LITAF (lipopolysaccharide-induced tumor necrosis factor-alpha factor) (from UniProt Q99732 1-161)
binding [1]: binds | binding [2]: binds
